Experimental data published in patent US12502380B2, “MrgprX2 antagonists for the treatment of inflammatory disorders” (Dermira, Inc., priority 2019, dated 2025).
The match of structure and compound is tentative.

Chains of the proteins cited; added tags and fusions are not shown.
UniProt Q96LB1, whole entry: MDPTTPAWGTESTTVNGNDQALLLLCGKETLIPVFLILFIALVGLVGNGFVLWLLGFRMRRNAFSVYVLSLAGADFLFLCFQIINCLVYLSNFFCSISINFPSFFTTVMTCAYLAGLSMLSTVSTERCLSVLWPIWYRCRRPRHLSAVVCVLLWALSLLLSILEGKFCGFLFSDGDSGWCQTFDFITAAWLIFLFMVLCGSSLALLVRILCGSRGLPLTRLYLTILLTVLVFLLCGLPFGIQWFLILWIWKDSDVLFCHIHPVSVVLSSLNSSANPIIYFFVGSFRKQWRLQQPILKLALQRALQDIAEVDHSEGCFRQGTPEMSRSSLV

Target: Human MrgprX2 (Homo sapiens, UniProt Q96LB1)
Test: Human MrgprX2 antagonist FLIPR intracellular calcium mobilization assay
Conditions: antagonist activity, recombinant hMrgpMRGPRX2 expressing cells
From the text: Potent and selective hMrgpMRGPRX2 compounds have been generated from compounds identified during a high throughput screening (HTS) campaign and followed up with cycles of structure activity based medicinal chemistry efforts. These compounds were characterized in recombinant hMrgpMRGPRX2 expressing cells for their antagonist activity and the potency was confirmed in the human mast cell line LAD-2, where the target is endogenously expressed. The assays used to determine potencies are functional read-out looking at intracellular calcium mobilization using the FLIPR™ technology. In these FLIPR assays, we test the identified compounds using recombinant cellular systems expressing mouse MrgprB2, mouse MrgprA1, gerbil MrgpMRGPRX2 orthologue, Chinese hamster MrgpMRGPRX2 orthologue and cynomolgus monkey MrgpMRGPRX2 orthologue, respectively for orthologue activity.

Compound: CC1(C(=O)Nc2ncc(Cc3cccc(F)c3)s2)CCS(=O)(=O)CC1
- Human MrgprX2 Antagonist pIC50: 5.4
